No constants are given. Whether binding was seen depends on the method and setting. Binding seen in cells or lysates may run through a third protein. Some binding calls cover weakened binding; strength is not graded here.
Legend:
Experiment in all cases: co-IP; protein extracts of wild type S. pombe cells expressing chromosomally tagged proteins; 500 ug protein, IP with anti-MYC or anti-FLAG overnight at 4 C, protein A/G sepharose; lysis buffer PBS pH 7.0, 200 mM NaCl, 0.5 mM EGTA, 0.5 mM EDTA, 0.1% Triton X100; five washes at 220 mM NaCl; blots with anti-HA, anti-FLAG or anti-MYC
Ubp8 (S. pombe) = molecular target: T1, Ubp8 (S. pombe) (UniProt Q09738)
T1 sequence: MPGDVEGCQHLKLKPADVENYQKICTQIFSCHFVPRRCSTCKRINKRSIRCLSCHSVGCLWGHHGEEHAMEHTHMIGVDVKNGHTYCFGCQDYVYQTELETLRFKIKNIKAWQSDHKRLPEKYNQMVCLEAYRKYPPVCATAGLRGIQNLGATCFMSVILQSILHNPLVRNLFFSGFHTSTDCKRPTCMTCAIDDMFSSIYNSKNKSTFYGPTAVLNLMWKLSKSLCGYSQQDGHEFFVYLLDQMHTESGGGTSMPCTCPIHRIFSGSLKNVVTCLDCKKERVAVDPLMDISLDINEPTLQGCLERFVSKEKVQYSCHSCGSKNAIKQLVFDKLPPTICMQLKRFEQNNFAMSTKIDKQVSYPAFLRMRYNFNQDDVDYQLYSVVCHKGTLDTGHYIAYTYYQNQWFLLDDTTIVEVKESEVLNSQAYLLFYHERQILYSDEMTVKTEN

By UniProt entry, the sequences of proteins in these tests, tags left out.
UniProt O94267: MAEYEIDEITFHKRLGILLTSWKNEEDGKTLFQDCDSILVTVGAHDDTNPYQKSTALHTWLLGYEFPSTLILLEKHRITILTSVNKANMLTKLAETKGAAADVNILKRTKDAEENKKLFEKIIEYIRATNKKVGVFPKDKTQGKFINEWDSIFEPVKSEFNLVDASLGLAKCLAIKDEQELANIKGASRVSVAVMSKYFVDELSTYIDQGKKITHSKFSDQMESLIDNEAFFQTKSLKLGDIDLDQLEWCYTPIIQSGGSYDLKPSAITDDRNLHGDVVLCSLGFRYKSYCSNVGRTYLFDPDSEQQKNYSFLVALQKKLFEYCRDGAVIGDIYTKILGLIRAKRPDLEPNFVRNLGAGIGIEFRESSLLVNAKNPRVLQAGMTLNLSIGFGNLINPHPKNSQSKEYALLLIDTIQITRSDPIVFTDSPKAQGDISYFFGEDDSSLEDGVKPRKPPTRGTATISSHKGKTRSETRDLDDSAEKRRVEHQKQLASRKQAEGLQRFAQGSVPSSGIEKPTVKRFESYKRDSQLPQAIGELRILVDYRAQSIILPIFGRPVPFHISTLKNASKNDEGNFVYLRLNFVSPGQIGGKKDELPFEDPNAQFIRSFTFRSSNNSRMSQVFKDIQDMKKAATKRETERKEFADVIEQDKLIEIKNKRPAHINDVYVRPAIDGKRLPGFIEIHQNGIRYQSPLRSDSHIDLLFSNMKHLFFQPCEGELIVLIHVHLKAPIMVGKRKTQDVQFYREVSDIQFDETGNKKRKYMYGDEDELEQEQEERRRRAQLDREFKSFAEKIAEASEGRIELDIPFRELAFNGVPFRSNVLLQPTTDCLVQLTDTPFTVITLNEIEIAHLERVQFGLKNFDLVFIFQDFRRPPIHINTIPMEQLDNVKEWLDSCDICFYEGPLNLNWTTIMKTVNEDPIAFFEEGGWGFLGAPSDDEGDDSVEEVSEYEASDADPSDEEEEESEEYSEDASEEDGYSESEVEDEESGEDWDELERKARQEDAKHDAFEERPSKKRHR

Spt3 (S. pombe) = molecular target: T2, Spt3 (S. pombe) (UniProt O14311)
T2 sequence: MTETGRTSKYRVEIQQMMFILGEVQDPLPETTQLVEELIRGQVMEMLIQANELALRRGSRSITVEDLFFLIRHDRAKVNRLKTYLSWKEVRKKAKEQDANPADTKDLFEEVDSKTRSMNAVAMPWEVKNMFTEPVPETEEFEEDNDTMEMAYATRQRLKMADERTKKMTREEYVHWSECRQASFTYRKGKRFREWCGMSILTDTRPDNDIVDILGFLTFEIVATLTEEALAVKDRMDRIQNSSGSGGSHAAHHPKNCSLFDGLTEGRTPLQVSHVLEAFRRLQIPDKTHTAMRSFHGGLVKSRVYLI

Rhp6 (S. pombe) = molecular target: T3, Rhp6 (S. pombe) (UniProt P23566)
T3 sequence: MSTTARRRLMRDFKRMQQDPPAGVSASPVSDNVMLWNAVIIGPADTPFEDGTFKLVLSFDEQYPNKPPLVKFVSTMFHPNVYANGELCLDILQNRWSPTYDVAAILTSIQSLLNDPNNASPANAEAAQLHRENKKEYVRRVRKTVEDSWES

Spt16 (S. pombe) = Spt16 (S. pombe) (UniProt O94267)
Epe1 (S. pombe) = molecular target: T4, Epe1 (S. pombe) (UniProt O94603)
T4 sequence: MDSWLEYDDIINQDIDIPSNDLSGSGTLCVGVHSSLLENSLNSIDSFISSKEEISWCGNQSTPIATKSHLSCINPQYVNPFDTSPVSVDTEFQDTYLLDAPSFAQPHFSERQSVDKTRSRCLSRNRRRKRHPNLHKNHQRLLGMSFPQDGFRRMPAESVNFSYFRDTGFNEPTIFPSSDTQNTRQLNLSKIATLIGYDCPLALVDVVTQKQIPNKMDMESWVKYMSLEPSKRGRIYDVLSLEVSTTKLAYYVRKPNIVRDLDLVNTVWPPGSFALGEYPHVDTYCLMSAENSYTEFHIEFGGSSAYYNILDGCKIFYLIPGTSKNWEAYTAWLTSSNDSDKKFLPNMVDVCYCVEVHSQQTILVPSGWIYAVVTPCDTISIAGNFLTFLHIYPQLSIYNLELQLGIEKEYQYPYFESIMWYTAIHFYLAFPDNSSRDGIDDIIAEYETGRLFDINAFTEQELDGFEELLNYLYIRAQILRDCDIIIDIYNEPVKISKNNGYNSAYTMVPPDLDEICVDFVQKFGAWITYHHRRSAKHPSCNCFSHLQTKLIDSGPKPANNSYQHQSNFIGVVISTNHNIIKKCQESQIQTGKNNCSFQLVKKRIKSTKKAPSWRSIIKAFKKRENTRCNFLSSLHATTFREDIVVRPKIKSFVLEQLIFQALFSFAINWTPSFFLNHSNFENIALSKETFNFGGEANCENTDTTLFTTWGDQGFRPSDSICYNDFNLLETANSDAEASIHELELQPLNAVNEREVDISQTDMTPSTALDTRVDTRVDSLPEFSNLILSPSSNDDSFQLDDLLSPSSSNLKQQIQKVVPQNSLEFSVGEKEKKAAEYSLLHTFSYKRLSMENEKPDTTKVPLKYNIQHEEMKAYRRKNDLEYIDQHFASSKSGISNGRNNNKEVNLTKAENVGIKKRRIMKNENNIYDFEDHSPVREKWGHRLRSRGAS

binding (Ubp8 (S. pombe)): binds | binding (Spt3 (S. pombe)): binds | binding (Rhp6 (S. pombe)): binds | binding (Spt16 (S. pombe)): binds | binding (Epe1 (S. pombe)): no binding
B1: Gad8 (protein, UniProt Q9P7J8 1-569)
chain: MSWKLTKKLKETHLASAIGLNSGGSSFTRGLKNSTLSSTSSRKSSDEKSRKSSEDKRSPQSTVVQPGLLQVTIIEARNLKLPSGHVPANYGVSIDNSLLAPPLSNGSGHARSRSHAWWLPYIVVEFDKNEILVDALNTASLENPCWDYQATFDVSRYSKLSLNIYLRSSSSRSRNGMGNDAFLGGIKLSPSFIVNKLTDEWVPLHGGSGELRVQMLYKPNQSTPLTIDAFELLKVVGKGSFGKVMQVRKRDTSRIYALKTMKKAHIVSRSEVDHTLAERTVLAQVNNPFIVPLKFSFQSPGKLYLVLAFVNGGELFHHLQREGCFDTYRAKFYIAELLVALECLHEFNVIYRDLKPENILLDYTGHIALCDFGLCKLNMAKTDRTNTFCGTPEYLAPELLLGHGYTKVVDWWTLGVLLYEMITGLPPFYDENINEMYRKILQDPLRFPDNIDEKAKDLLSGLLTRAPEKRLGSGGAQEIKNHPFFDDIDWKKLCAKKIQPPFKPSVESAIDTSNFDSEFTSEIPMDSVVADSHLSETVQQRFANWSYQRPTTIDTSDDINTIAPGSVIR

Reference: paper PMC8880919
